{
  "source": "patent US20180251847A1",
  "about": "“METHOD OF PREDICTING THE TUMOR RESPONSE TO DNA METHYLATION INHIBITORS AND ALTERNATIVE THERAPEUTIC REGIMEN FOR OVERCOMING RESISTANCE” (PALACKY UNIVERSITY, OLOMOUC, priority 2014, published 2018)",
  "key": {"R2.2 (HCT116-RDAC)": {"system": "R2.2 (HCT116-RDAC)", "assay": "MTT based cell survival assay, DAC resistant HCT116 clone R2.2", "set-up": "species or system human", "procedure": "(§1) The DAC resistant HCT116 cell lines were developed using two methods.\n(§2) The method is primarily based on reduction of yellow colored tetrazolium salt, 3-(4,5-dimethylthiazol-2-yl)-2,5-diphenyltetrazolium bromide (MTT) to insoluble purple colored formazan crystals by NAD(P)H-dependent oxidoreductase enzymes in mitochondria of the viable cell.\n(§3) Cells in 80 μL of medium were plated in each of the experimental and the control wells, followed by addition of 20 μL medium with five-fold drug concentration to experimental wells. The wells with medium alone were included alongside as blank for absorbance readings. After 72 h of drug treatment, 10 μL MTT (Sigma-Aldrich) prepared in 1×PBS (5 mg/mL) was added to all wells including blank and control, and incubated until the purple formazan crystals were visible after which 100 μL of detergent (10% SDS, pH: 5.5) was added and the plates were incubated overnight to solubilize the formazan and the cellular material.\n(§4) Cross resistance was determined as the fold increase, whereas, the sensitivity was determined as the fold decrease in the IC50 of the drugs for the resistant cell lines compared to their genetically identical drug sensitive counterpart."}, "R1.1 (HCT116-RDAC)": {"system": "R1.1 (HCT116-RDAC)", "assay": "MTT based cell survival assay, DAC resistant HCT116 clone R1.1", "set-up": "species or system human", "procedure": "as §1, §2, §3, §4"}, "HCT116": {"system": "HCT116", "assay": "MTT based cell survival assay, parental HCT116", "conditions": "Homo sapiens, HCT-116, 72 h drug treatment", "procedure": "To study the mechanism of resistance towards DNA methylation inhibitor, 2′-deoxy-5-azacytidine, we used the human colorectal cancer cell line (HCT116), human promyelocytic leukemia cells (HL-60), and human breast adenocarcinoma cell line (MCF-7) obtained from American Type Culture Collection (Manassas, Va.). The cell lines were cultured in complete growth media (Sigma-Aldrich, St. Louis, Mo.), supplemented with fetal bovine serum (FBS, PAN-Biotech GmbH, Aidenbach, Germany), 100 U/mL penicillin (Biotika, Slovenská L'upča, Slovak Republic) and 50 μg/mL streptomycin (Sigma-Aldrich), and the cultures were maintained at 37° C. and 5% CO2, in a humidified incubator. […]\nTo determine the IC50 of the epigenetic drugs (Tocris Bioscience, Bristol, United Kingdom), four independent experiments were performed using triplicate wells of 96 well plates. […] The wells with medium alone were included alongside as blank for absorbance readings. […]\nas §4"}, "R1.2 (HCT116-RDAC)": {"system": "R1.2 (HCT116-RDAC)", "assay": "MTT based cell survival assay, DAC resistant HCT116 clone R1.2", "set-up": "species or system human", "procedure": "as §1, §2, §3, §4"}, "R1.4 (HCT116-RDAC)": {"system": "R1.4 (HCT116-RDAC)", "assay": "MTT based cell survival assay, DAC resistant HCT116 clone R1.4", "set-up": "species or system human", "procedure": "as §1, §2, §3, §4"}, "R1.3 (HCT116-RDAC)": {"system": "R1.3 (HCT116-RDAC)", "assay": "MTT based cell survival assay, DAC resistant HCT116 clone R1.3", "conditions": "Homo sapiens, HCT-116; R1.3, MTT, 72 h drug treatment", "procedure": "as §1, §2, §3, §4"}},
  "data": [
    {"smiles": "O=C(CCCCCCC(=O)Nc1ccccc1)NO", "note": "[Vorinostat]", "values": [
      {"measurement": "IC50", "setting": "R2.2 (HCT116-RDAC); Homo sapiens, HCT-116, R2.2, MTT, 72 h drug treatment", "value": 800, "unit": "nM"},
      {"measurement": "fold change (resistance index)", "setting": "R2.2 (HCT116-RDAC); IC50 R2.2 / IC50 HCT116", "value": "(1.19) fold"},
      {"measurement": "IC50", "setting": "R1.1 (HCT116-RDAC); Homo sapiens, HCT-116, R1.1, MTT, 72 h drug treatment", "value": 840, "unit": "nM"},
      {"measurement": "fold change (resistance index)", "setting": "R1.1 (HCT116-RDAC); IC50 R1.1 / IC50 HCT116", "value": "(1.24) fold"},
      {"measurement": "IC50", "setting": "HCT116", "value": 680, "unit": "nM"},
      {"measurement": "IC50", "setting": "R1.2 (HCT116-RDAC); Homo sapiens, HCT-116, R1.2, MTT, 72 h drug treatment", "value": 940, "unit": "nM"},
      {"measurement": "fold change (resistance index)", "setting": "R1.2 (HCT116-RDAC); IC50 R1.2 / IC50 HCT116", "value": "(1.39) fold"},
      {"measurement": "IC50", "setting": "R1.4 (HCT116-RDAC); Homo sapiens, HCT-116, R1.4, MTT, 72 h drug treatment", "value": 920, "unit": "nM"},
      {"measurement": "fold change (resistance index)", "setting": "R1.4 (HCT116-RDAC); IC50 R1.4 / IC50 HCT116", "value": "(1.37) fold"},
      {"measurement": "IC50", "setting": "R1.3 (HCT116-RDAC)", "value": 860, "unit": "nM"}
    ]}
  ]
}
